The values below are quoted from earlier work in patent US20060205626A1, “Cleaning compound for a medical or dental office” (priority 2005, published 2006).

The conditions of this series: aqueous solution.

On to `O=S(=O)([O-])O[O-].[K+].[K+]` [Potassium peroxymonosulfate], for which the “pH of minimum stability in solution” value is on record as 9.
